From the supplement of paper PMC4371806
Whole data set: some 1,600 compounds, median “plate-normalized OD600 growth (mean of duplicates)” near 0.31, cut for the lowest 2% near 0.23. This is one part of the list.

Tested on: Escherichia coli BW25113
Assay: plate-normalized OD600 growth (mean of duplicates) (OD600 (normalized)); higher = more growth (less inhibition)
Settings: 10 µM
Experimental: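 E. coli BW25113 in LB (100 µl, 96-well, no shaking) was exposed to 10 µM of each compound (here the ChemBridge subset of a ~30,000-member library) and grown at 37°C for 24 h or 15°C for 48 h, in duplicate. Growth was read as OD600 and the duplicate ODs were normalized across screening plates to correct plate-to-plate variation.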

## CC1=C(CCN2CCN(C)CC2)C(C)(C)CCC1
temperature: 15°C, 48 h
  plate-normalized OD600 growth: 0.237
temperature: 37°C, 24 h
  plate-normalized OD600 growth: 0.656

## Nc1ccc2oc3ccc(N)cc3c(=O)c2c1
temperature: 15°C, 48 h
  plate-normalized OD600 growth: 0.246
temperature: 37°C, 24 h
  plate-normalized OD600 growth: 0.61

## O=C1c2ccc(-c3ccc4c(c3)C(=O)N(CCO)C4=O)cc2C(=O)N1CCO
temperature: 15°C, 48 h
  plate-normalized OD600 growth: 0.248
temperature: 37°C, 24 h
  plate-normalized OD600 growth: 0.656

## COc1ccccc1N1CCN(Cc2cc(Br)c(O)c(OC)c2)CC1
temperature: 15°C, 48 h
  plate-normalized OD600 growth: 0.271
temperature: 37°C, 24 h
  plate-normalized OD600 growth: 0.627

## O=C(CC1Nc2ccccc2NC1=O)Nc1ccc(Cl)cc1 (stereo not drawn)
temperature: 15°C, 48 h
  plate-normalized OD600 growth: 0.215
temperature: 37°C, 24 h
  plate-normalized OD600 growth: 0.6

## O=C(Nc1ccc(I)cc1)c1cnccn1
temperature: 15°C, 48 h
  plate-normalized OD600 growth: 0.242
temperature: 37°C, 24 h
  plate-normalized OD600 growth: 0.626

## Cn1c2c(c(=O)[nH]c1=O)C(c1ccc(Cl)cc1)C1=C(N2)c2ccccc2C1=O (stereo not drawn)
temperature: 15°C, 48 h
  plate-normalized OD600 growth: 0.254
temperature: 37°C, 24 h
  plate-normalized OD600 growth: 0.622

## Cc1onc(-c2ccccc2)c1C(=O)O
temperature: 15°C, 48 h
  plate-normalized OD600 growth: 0.271
temperature: 37°C, 24 h
  plate-normalized OD600 growth: 0.628

## COc1ccc(N2C(=O)CC(NCc3ccco3)C2=O)cc1 (stereo not drawn)
temperature: 15°C, 48 h
  plate-normalized OD600 growth: 0.242
temperature: 37°C, 24 h
  plate-normalized OD600 growth: 0.586

## N#CC1=C(N)Oc2cc(O)ccc2C1c1ccccc1 (stereo not drawn)
temperature: 15°C, 48 h
  plate-normalized OD600 growth: 0.256
temperature: 37°C, 24 h
  plate-normalized OD600 growth: 0.607

## CCC1CCCCN1C(=O)c1cccc([N+](=O)[O-])c1C (stereo not drawn)
temperature: 15°C, 48 h
  plate-normalized OD600 growth: 0.247
temperature: 37°C, 24 h
  plate-normalized OD600 growth: 0.612

## CCn1c(C)c(C=O)c2cc([N+](=O)[O-])ccc21
temperature: 15°C, 48 h
  plate-normalized OD600 growth: 0.223
temperature: 37°C, 24 h
  plate-normalized OD600 growth: 0.608

## C(=C\c1ccccc1)/CN1CCN(C2CCN(CCc3ccccc3)CC2)CC1
temperature: 15°C, 48 h
  plate-normalized OD600 growth: 0.249
temperature: 37°C, 24 h
  plate-normalized OD600 growth: 0.627

## C(CN1CCOCC1)NC1CC2CCC1C2 (stereo not drawn)
temperature: 15°C, 48 h
  plate-normalized OD600 growth: 0.244
temperature: 37°C, 24 h
  plate-normalized OD600 growth: 0.628

## COc1ccc(S(=O)(=O)Nc2ccc(C(C)C)cc2)cc1OC
temperature: 15°C, 48 h
  plate-normalized OD600 growth: 0.242
temperature: 37°C, 24 h
  plate-normalized OD600 growth: 0.606

## COc1ccc(NS(=O)(=O)c2ccc(NC(=O)c3ccccc3)cc2)nn1
temperature: 15°C, 48 h
  plate-normalized OD600 growth: 0.251
temperature: 37°C, 24 h
  plate-normalized OD600 growth: 0.674

## CN1CCN(C(=O)NC23CC4CC(CC(C4)C2)C3)CC1
temperature: 15°C, 48 h
  plate-normalized OD600 growth: 0.283
temperature: 37°C, 24 h
  plate-normalized OD600 growth: 0.645

## Cc1cccc(-c2nc(-c3cccnc3)no2)c1
temperature: 15°C, 48 h
  plate-normalized OD600 growth: 0.244
temperature: 37°C, 24 h
  plate-normalized OD600 growth: 0.605

## COc1cccc(-c2nc(Cc3ccc(Cl)cc3)no2)c1
temperature: 15°C, 48 h
  plate-normalized OD600 growth: 0.253
temperature: 37°C, 24 h
  plate-normalized OD600 growth: 0.601

## CCC(Cc1ccccc1)NC(=O)c1ccc(OC)c(OC)c1 (stereo not drawn)
temperature: 15°C, 48 h
  plate-normalized OD600 growth: 0.252
temperature: 37°C, 24 h
  plate-normalized OD600 growth: 0.62

## COc1ccc(NC(=O)c2ccc(OC)cc2)cc1
temperature: 15°C, 48 h
  plate-normalized OD600 growth: 0.254
temperature: 37°C, 24 h
  plate-normalized OD600 growth: 0.636

## C=CCOc1ccccc1CN1CCCN(C)CC1
temperature: 15°C, 48 h
  plate-normalized OD600 growth: 0.217
temperature: 37°C, 24 h
  plate-normalized OD600 growth: 0.595

## COc1ccc(NC(=O)[C@@H]2C3C=CC(C3)[C@@H]2C(=O)O)cc1 (stereo partly drawn)
temperature: 15°C, 48 h
  plate-normalized OD600 growth: 0.243
temperature: 37°C, 24 h
  plate-normalized OD600 growth: 0.634

## O=C(NCC1CCCO1)c1cc(Cl)ccc1Cl (stereo not drawn)
temperature: 15°C, 48 h
  plate-normalized OD600 growth: 0.252
temperature: 37°C, 24 h
  plate-normalized OD600 growth: 0.609

## COc1ccccc1NS(=O)(=O)c1ccc(C(C)(C)C)cc1
temperature: 15°C, 48 h
  plate-normalized OD600 growth: 0.254
temperature: 37°C, 24 h
  plate-normalized OD600 growth: 0.618

## O=[N+]([O-])c1cccc(S(=O)(=O)/C=C/c2ccccc2)c1
temperature: 15°C, 48 h
  plate-normalized OD600 growth: 0.243
temperature: 37°C, 24 h
  plate-normalized OD600 growth: 0.625

## N#C/C(=C1/CCCCCN1)c1nnc2n1CCCCC2
temperature: 15°C, 48 h
  plate-normalized OD600 growth: 0.267
temperature: 37°C, 24 h
  plate-normalized OD600 growth: 0.655

## COc1ccccc1/C=C/CN1CCSCC1
temperature: 15°C, 48 h
  plate-normalized OD600 growth: 0.235
temperature: 37°C, 24 h
  plate-normalized OD600 growth: 0.61

## OC(Cc1ccc2ccccc2n1)C(Cl)(Cl)Cl (stereo not drawn)
temperature: 15°C, 48 h
  plate-normalized OD600 growth: 0.247
temperature: 37°C, 24 h
  plate-normalized OD600 growth: 0.614

## COc1cccc(C2C(C#N)=C(N)Oc3nc(C)[nH]c(=O)c32)c1OC (stereo not drawn)
temperature: 15°C, 48 h
  plate-normalized OD600 growth: 0.269
temperature: 37°C, 24 h
  plate-normalized OD600 growth: 0.635

## CN(C)Cc1c(N)cccc1O
temperature: 15°C, 48 h
  plate-normalized OD600 growth: 0.237
temperature: 37°C, 24 h
  plate-normalized OD600 growth: 0.611

## O=[N+]([O-])c1ccc(CN2CCCC2)s1
temperature: 15°C, 48 h
  plate-normalized OD600 growth: 0.253
temperature: 37°C, 24 h
  plate-normalized OD600 growth: 0.605

## CCCCOc1ccc(N2C(=O)CC(N3CCN(c4ncccn4)CC3)C2=O)cc1 (stereo not drawn)
temperature: 15°C, 48 h
  plate-normalized OD600 growth: 0.25
temperature: 37°C, 24 h
  plate-normalized OD600 growth: 0.613

## CC(=O)c1ccc(N2CCN(CC3CCCCC3)CC2)cc1
temperature: 15°C, 48 h
  plate-normalized OD600 growth: 0.248
temperature: 37°C, 24 h
  plate-normalized OD600 growth: 0.638

## Cc1c(Cl)cccc1NC(=O)c1cccnc1
temperature: 15°C, 48 h
  plate-normalized OD600 growth: 0.265
temperature: 37°C, 24 h
  plate-normalized OD600 growth: 0.631

## CC1(C)CC(=O)C2=C(C1)Nc1ccccc1NC2c1ccc(Br)cc1 (stereo not drawn)
temperature: 15°C, 48 h
  plate-normalized OD600 growth: 0.275
temperature: 37°C, 24 h
  plate-normalized OD600 growth: 0.627

## COc1cccc(OC)c1C(=O)Nc1cccc(F)c1
temperature: 15°C, 48 h
  plate-normalized OD600 growth: 0.265
temperature: 37°C, 24 h
  plate-normalized OD600 growth: 0.625

## COc1cc2c(cc1NC(=O)C(Cl)Cl)oc1ccccc12
temperature: 15°C, 48 h
  plate-normalized OD600 growth: 0.232
temperature: 37°C, 24 h
  plate-normalized OD600 growth: 0.619

## O=[N+]([O-])c1cc(Cl)ccc1N1CCCNCC1
temperature: 15°C, 48 h
  plate-normalized OD600 growth: 0.244
temperature: 37°C, 24 h
  plate-normalized OD600 growth: 0.592

## CC(=O)N1c2ccccc2CCc2ccc(N)cc21
temperature: 15°C, 48 h
  plate-normalized OD600 growth: 0.25
temperature: 37°C, 24 h
  plate-normalized OD600 growth: 0.625

## O=C(Nc1ccccc1[N+](=O)[O-])C1=C(O)CCn2c1nc1ccccc12
temperature: 15°C, 48 h
  plate-normalized OD600 growth: 0.244
temperature: 37°C, 24 h
  plate-normalized OD600 growth: 0.589

## O=C(O)CSc1nccn1Cc1ccccc1
temperature: 15°C, 48 h
  plate-normalized OD600 growth: 0.244
temperature: 37°C, 24 h
  plate-normalized OD600 growth: 0.625

## CN1C(=O)CC(N2CCN(C(c3ccccc3)c3ccccc3)CC2)C1=O (stereo not drawn)
temperature: 15°C, 48 h
  plate-normalized OD600 growth: 0.259
temperature: 37°C, 24 h
  plate-normalized OD600 growth: 0.623

## CN(CCc1ccccn1)Cc1ccc(Cl)c(Cl)c1
temperature: 15°C, 48 h
  plate-normalized OD600 growth: 0.222
temperature: 37°C, 24 h
  plate-normalized OD600 growth: 0.622

## COC(=O)Nc1ccc(S(=O)(=O)N2CCCCC2)cc1
temperature: 15°C, 48 h
  plate-normalized OD600 growth: 0.238
temperature: 37°C, 24 h
  plate-normalized OD600 growth: 0.599

## COc1cc(C)c(CN2CCc3c([nH]c4ccccc34)C2)cc1C
temperature: 15°C, 48 h
  plate-normalized OD600 growth: 0.229
temperature: 37°C, 24 h
  plate-normalized OD600 growth: 0.597

## C=CCn1c(N)c(S(=O)(=O)c2ccccc2)c2nc3ccccc3nc21
temperature: 15°C, 48 h
  plate-normalized OD600 growth: 0.248
temperature: 37°C, 24 h
  plate-normalized OD600 growth: 0.606

## Cc1nc(N)nc(OCC(F)(F)C(F)F)c1Br
temperature: 15°C, 48 h
  plate-normalized OD600 growth: 0.221
temperature: 37°C, 24 h
  plate-normalized OD600 growth: 0.604

## O=c1ccn(Cc2ccccc2)c(=O)[nH]1
temperature: 15°C, 48 h
  plate-normalized OD600 growth: 0.251
temperature: 37°C, 24 h
  plate-normalized OD600 growth: 0.609

## Cc1cc(F)c(F)cc1C(=O)Nc1cccc(F)c1
temperature: 15°C, 48 h
  plate-normalized OD600 growth: 0.255
temperature: 37°C, 24 h
  plate-normalized OD600 growth: 0.642

## Cc1cccc(NS(=O)(=O)c2cccc(C(=O)Nc3ccc([N+](=O)[O-])cc3)c2)c1
temperature: 15°C, 48 h
  plate-normalized OD600 growth: 0.246
temperature: 37°C, 24 h
  plate-normalized OD600 growth: 0.61

## Cc1c(Cc2ccccc2)sc(N)c1C(N)=O
temperature: 15°C, 48 h
  plate-normalized OD600 growth: 0.258
temperature: 37°C, 24 h
  plate-normalized OD600 growth: 0.626

## Cn1c2ccccc2n2c(C=O)c(-c3ccccc3)nc12
temperature: 15°C, 48 h
  plate-normalized OD600 growth: 0.256
temperature: 37°C, 24 h
  plate-normalized OD600 growth: 0.624

## O=[N+]([O-])c1ccccc1/C=C/CN1CCN(c2ncccn2)CC1
temperature: 15°C, 48 h
  plate-normalized OD600 growth: 0.246
temperature: 37°C, 24 h
  plate-normalized OD600 growth: 0.623
